# ± gives the standard deviation of the averaged measurements. Some of the results follow.
# Key:
# Test in all cases: NP40-soluble protein abundance relative to vehicle (solubility fold change) (ratio); higher = more soluble protein in presence of GTP
# ARHGAP1 = molecular target: T1, ARHGAP1 (UniProt Q07960)
# T1 sequence (whole entry): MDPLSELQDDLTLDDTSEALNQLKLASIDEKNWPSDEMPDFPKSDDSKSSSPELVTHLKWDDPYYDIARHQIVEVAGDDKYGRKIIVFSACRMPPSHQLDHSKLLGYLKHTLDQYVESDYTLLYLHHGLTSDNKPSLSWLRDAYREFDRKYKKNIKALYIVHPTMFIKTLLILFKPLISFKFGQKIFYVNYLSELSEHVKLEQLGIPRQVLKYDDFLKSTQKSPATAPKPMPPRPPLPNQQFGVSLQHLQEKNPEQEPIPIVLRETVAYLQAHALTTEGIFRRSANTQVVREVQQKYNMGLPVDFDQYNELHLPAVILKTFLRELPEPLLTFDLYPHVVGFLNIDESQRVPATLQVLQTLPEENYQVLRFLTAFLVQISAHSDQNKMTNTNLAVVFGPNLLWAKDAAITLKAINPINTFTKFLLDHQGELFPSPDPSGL
# Method in brief: (§1)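 In three independent experiments, Jurkat crude lysate made by Dounce homogenisation was treated for 10 min at room temperature and then 3 min at 37 °C with eight concentrations ranging from 0.1 to 10 mM. It was then solubilised with 0.8% NP40 plus benzonase for 60 min at 4 °C and ultracentrifuged. The supernatant was TMT-labelled for LC-MS/MS, and each value is the fold change against the detergent-processed vehicle for the same replicate, using vsn-normalised intensities.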
# GALE = molecular target: T2, GALE (UniProt Q14376)
# T2 sequence (whole entry): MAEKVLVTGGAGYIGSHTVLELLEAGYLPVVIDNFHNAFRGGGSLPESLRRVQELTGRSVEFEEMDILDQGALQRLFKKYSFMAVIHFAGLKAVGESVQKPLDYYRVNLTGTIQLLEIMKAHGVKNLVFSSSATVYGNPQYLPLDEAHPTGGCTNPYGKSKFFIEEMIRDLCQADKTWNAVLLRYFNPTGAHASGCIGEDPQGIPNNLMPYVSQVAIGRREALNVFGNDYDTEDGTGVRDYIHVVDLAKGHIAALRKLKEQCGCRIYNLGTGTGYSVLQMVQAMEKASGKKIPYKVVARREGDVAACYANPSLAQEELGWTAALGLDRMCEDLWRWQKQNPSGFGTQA
# Method in brief: as §1
# IRF3 = molecular target: T3, IRF3 (UniProt Q14653)
# T3 sequence (whole entry): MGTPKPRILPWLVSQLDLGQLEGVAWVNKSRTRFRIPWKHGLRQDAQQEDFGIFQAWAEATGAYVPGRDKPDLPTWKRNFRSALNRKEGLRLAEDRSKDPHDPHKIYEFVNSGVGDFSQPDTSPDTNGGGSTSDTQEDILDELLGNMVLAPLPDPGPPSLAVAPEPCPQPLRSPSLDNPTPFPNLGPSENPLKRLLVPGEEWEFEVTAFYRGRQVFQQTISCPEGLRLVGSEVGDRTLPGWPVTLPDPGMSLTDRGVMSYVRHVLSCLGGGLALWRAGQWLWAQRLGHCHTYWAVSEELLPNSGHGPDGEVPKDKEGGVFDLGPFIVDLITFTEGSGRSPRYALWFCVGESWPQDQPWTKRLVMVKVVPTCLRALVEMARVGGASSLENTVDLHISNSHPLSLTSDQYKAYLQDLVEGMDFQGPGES
# Method in brief: as §1
# LAGE3 = molecular target: T4, LAGE3 (UniProt Q14657)
# T4 sequence (whole entry): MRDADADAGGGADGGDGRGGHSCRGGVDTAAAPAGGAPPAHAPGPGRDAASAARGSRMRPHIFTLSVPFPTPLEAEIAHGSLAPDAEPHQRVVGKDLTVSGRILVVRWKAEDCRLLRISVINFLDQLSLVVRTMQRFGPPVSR
# Method in brief: as §1
# MLLT11 = molecular target: T5, MLLT11 (UniProt Q13015)
# T5 sequence (whole entry): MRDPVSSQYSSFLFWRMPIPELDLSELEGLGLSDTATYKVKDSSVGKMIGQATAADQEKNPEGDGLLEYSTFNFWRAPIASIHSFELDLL
# Method in brief: as §1
# PURA = molecular target: T6, PURA (UniProt Q00577)
# T6 sequence (whole entry): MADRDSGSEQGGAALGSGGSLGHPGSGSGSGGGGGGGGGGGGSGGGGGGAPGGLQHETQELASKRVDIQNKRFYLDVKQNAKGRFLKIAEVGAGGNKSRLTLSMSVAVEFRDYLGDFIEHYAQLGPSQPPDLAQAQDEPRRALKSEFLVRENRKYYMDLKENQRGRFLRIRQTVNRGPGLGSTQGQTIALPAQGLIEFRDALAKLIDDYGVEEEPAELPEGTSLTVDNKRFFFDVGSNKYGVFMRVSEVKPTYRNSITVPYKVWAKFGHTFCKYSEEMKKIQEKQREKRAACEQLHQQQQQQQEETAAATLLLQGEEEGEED
# Method in brief: as §1
structure (smiles),measurement,setting,value
Nc1nc2c(ncn2[C@@H]2O[C@H](COP(=O)(O)OP(=O)(O)OP(=O)(O)O)[C@@H](O)[C@H]2O)c(=O)[nH]1 [guanosine triphosphate],NP40-soluble protein abundance,ARHGAP1; concentration: 0.1mM,0.963 ± 0.015
same,NP40-soluble protein abundance,ARHGAP1; concentration: 0.5mM,0.961 ± 0.012
same,NP40-soluble protein abundance,ARHGAP1; concentration: 1mM,0.952 ± 0.011
same,NP40-soluble protein abundance,ARHGAP1; concentration: 2mM,0.93 ± 0.045
same,NP40-soluble protein abundance,ARHGAP1; concentration: 4mM,0.942 ± 0.042
same,NP40-soluble protein abundance,ARHGAP1; concentration: 6mM,0.911 ± 0.037
same,NP40-soluble protein abundance,ARHGAP1; concentration: 8mM,0.867 ± 0.06
same,NP40-soluble protein abundance,ARHGAP1; concentration: 10mM,0.908 ± 0.064
same,NP40-soluble protein abundance,GALE; concentration: 0.1mM,1 ± 0.042
same,NP40-soluble protein abundance,GALE; concentration: 0.5mM,1.01 ± 0.013
same,NP40-soluble protein abundance,GALE; concentration: 1mM,0.957 ± 0.031
same,NP40-soluble protein abundance,GALE; concentration: 2mM,0.97 ± 0.038
same,NP40-soluble protein abundance,GALE; concentration: 4mM,0.937 ± 0.063
same,NP40-soluble protein abundance,GALE; concentration: 6mM,0.932 ± 0.026
same,NP40-soluble protein abundance,GALE; concentration: 8mM,0.906 ± 0.081
same,NP40-soluble protein abundance,GALE; concentration: 10mM,0.919 ± 0.11
same,NP40-soluble protein abundance,IRF3; concentration: 0.1mM,0.98 ± 0.044
same,NP40-soluble protein abundance,IRF3; concentration: 0.5mM,0.984 ± 0.051
same,NP40-soluble protein abundance,IRF3; concentration: 1mM,0.974 ± 0.043
same,NP40-soluble protein abundance,IRF3; concentration: 2mM,0.946 ± 0.053
same,NP40-soluble protein abundance,IRF3; concentration: 4mM,0.923 ± 0.13
same,NP40-soluble protein abundance,IRF3; concentration: 6mM,0.919 ± 0.08
same,NP40-soluble protein abundance,IRF3; concentration: 8mM,0.909 ± 0.1
same,NP40-soluble protein abundance,IRF3; concentration: 10mM,0.935 ± 0.079
same,NP40-soluble protein abundance,LAGE3; concentration: 0.1mM,1.09 ± 0.084
same,NP40-soluble protein abundance,LAGE3; concentration: 0.5mM,0.835 ± 0.023
same,NP40-soluble protein abundance,LAGE3; concentration: 1mM,1.02 ± 0.052
same,NP40-soluble protein abundance,LAGE3; concentration: 2mM,0.923 ± 0.059
same,NP40-soluble protein abundance,LAGE3; concentration: 4mM,0.912 ± 0.049
same,NP40-soluble protein abundance,LAGE3; concentration: 6mM,0.864 ± 0.039
same,NP40-soluble protein abundance,LAGE3; concentration: 8mM,0.834 ± 0.066
same,NP40-soluble protein abundance,LAGE3; concentration: 10mM,0.897 ± 0.1
same,NP40-soluble protein abundance,MLLT11; concentration: 0.1mM,0.904 ± 0.025
same,NP40-soluble protein abundance,MLLT11; concentration: 0.5mM,1.01 ± 0.065
same,NP40-soluble protein abundance,MLLT11; concentration: 1mM,1.43 ± 0.074
same,NP40-soluble protein abundance,MLLT11; concentration: 2mM,1.5 ± 0.15
same,NP40-soluble protein abundance,MLLT11; concentration: 4mM,1.46 ± 0.28
same,NP40-soluble protein abundance,MLLT11; concentration: 6mM,1.36 ± 0.13
same,NP40-soluble protein abundance,MLLT11; concentration: 8mM,1.35 ± 0.089
same,NP40-soluble protein abundance,MLLT11; concentration: 10mM,1.38 ± 0.2
same,NP40-soluble protein abundance,PURA; concentration: 0.1mM,0.976 ± 0.019
same,NP40-soluble protein abundance,PURA; concentration: 0.5mM,0.948 ± 0.013
same,NP40-soluble protein abundance,PURA; concentration: 1mM,0.944 ± 0.05
same,NP40-soluble protein abundance,PURA; concentration: 2mM,0.906 ± 0.026
same,NP40-soluble protein abundance,PURA; concentration: 4mM,0.913 ± 0.064
same,NP40-soluble protein abundance,PURA; concentration: 6mM,0.913 ± 0.043
same,NP40-soluble protein abundance,PURA; concentration: 8mM,0.908 ± 0.059
same,NP40-soluble protein abundance,PURA; concentration: 10mM,0.913 ± 0.043

# An excerpt of these results, bar-delimited:
structure (smiles) | measurement | setting | value
Nc1nc2c(ncn2[C@@H]2O[C@H](COP(=O)(O)OP(=O)(O)OP(=O)(O)O)[C@@H](O)[C@H]2O)c(=O)[nH]1 [guanosine triphosphate] | NP40-soluble protein abundance | GALE; concentration: 4mM | 0.937 ± 0.063
same | NP40-soluble protein abundance | GALE; concentration: 6mM | 0.932 ± 0.026
same | NP40-soluble protein abundance | GALE; concentration: 8mM | 0.906 ± 0.081
same | NP40-soluble protein abundance | GALE; concentration: 10mM | 0.919 ± 0.11
same | NP40-soluble protein abundance | IRF3; concentration: 0.1mM | 0.98 ± 0.044
same | NP40-soluble protein abundance | IRF3; concentration: 0.5mM | 0.984 ± 0.051
same | NP40-soluble protein abundance | IRF3; concentration: 1mM | 0.974 ± 0.043
same | NP40-soluble protein abundance | IRF3; concentration: 2mM | 0.946 ± 0.053
same | NP40-soluble protein abundance | IRF3; concentration: 4mM | 0.923 ± 0.13
same | NP40-soluble protein abundance | IRF3; concentration: 6mM | 0.919 ± 0.08
same | NP40-soluble protein abundance | IRF3; concentration: 8mM | 0.909 ± 0.1
same | NP40-soluble protein abundance | IRF3; concentration: 10mM | 0.935 ± 0.079
